Several values for one entry are separate records, joined by “and”; a condition that tells them apart may be missing. Identical values can stand only once.
System: Fibroblasts of a normal human
Assay: Test for determining activity of fibroblast to enhance type I collagen production (ELISA of culture medium)
Assay type: cell-based
Conditions: positive control, 25 μM, 24 h, n=6
Method: Fibroblasts of a normal human were cultured for 24 hours in 0.5% FBS-DMEM culture medium containing the test sample, and the amount of collagen in the culture medium was quantified by ELISA. The test was carried out by repeating six times for each condition (n=6). As a positive control (P.C.), magnesium ascorbyl phosphate (VCPMg) was used. The test samples employed were the calcined hydroxyapatite that is produced in the Production Example 1 and the non-calcined hydroxyapatite that is used in the Production Example 2.

With O=C1O[C@H]([C@@H](O)CO)C([O-])=C1OP(=O)([O-])[O-].O=C1O[C@H]([C@@H](O)CO)C([O-])=C1OP(=O)([O-])[O-].[Mg+2].[Mg+2].[Mg+2] [VC-PMg, magnesium ascorbyl phosphate] the “Protein Mean ± SD” value was 6.99 ± 0.56 μg/well and 6.36 ± 0.21 μg/well.

Source: patent US20120128788A1, “COLLAGEN PRODUCTION ENHANCER” (SOFSERA CORPORATION, priority 2009, published 2012)
